{"source": "PubChem BioAssay AID1671195 | Yale University, 2021", "assay": "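Genes whose knockdown alters LDL uptake in liver cancer cells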 (primary screen)", "cell system": "human Huh7 hepatoma cells", "reagent": "siRNA pool against human genes, 18 nM", "duration": "about 2 to 2.5 days of knockdown, then 8 h LDL uptake", "conditions": "DiI-labelled LDL at 30 µg/ml for 8 h, in lipoprotein-deficient serum medium", "detection": "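Per-cell DiI-LDL intensity by automated imaging; well means scaled to the plate median and given as a robust z-score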", "direction": "robust z-score: higher = more LDL uptake after knockdown", "rule for the call": "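a gene counts as active if at least two replicate z-scores exceed ±2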", "note": "The whole screen tested about 22,000 reagents; below is a random part of them. About 1,510 of all reagents (6.9%) were called active. 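Active includes knockdowns raising or lowering LDL uptake; positive z-scores mean more uptake, negative mean less.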"}
{"gene":"FCAMR (GeneID 83953)","robust z-score, replicate 1":-0.516,"robust z-score, replicate 2":-0.537,"robust z-score, replicate 3":-0.441,"call":"inactive"}
{"gene":"LOC441817 (retired record) (GeneID 441817)","robust z-score, replicate 1":-1.61,"robust z-score, replicate 2":-1.88,"robust z-score, replicate 3":-1.4,"call":"inactive"}
{"gene":"RMND5A (GeneID 64795)","robust z-score, replicate 1":1.15,"robust z-score, replicate 2":1.29,"robust z-score, replicate 3":0.85,"call":"inactive"}
{"gene":"TWIST2 (GeneID 117581)","robust z-score, replicate 1":-0.447,"robust z-score, replicate 2":-0.302,"robust z-score, replicate 3":-1.82,"call":"inactive"}
{"gene":"VPS13A (GeneID 23230)","robust z-score, replicate 1":-0.692,"robust z-score, replicate 2":-1.14,"robust z-score, replicate 3":-0.553,"call":"inactive"}
{"gene":"ASB17 (GeneID 127247)","robust z-score, replicate 1":3.22,"robust z-score, replicate 2":2.55,"robust z-score, replicate 3":2.99,"call":"active"}
{"gene":"INPP5J (GeneID 27124)","robust z-score, replicate 1":0.887,"robust z-score, replicate 2":1.32,"robust z-score, replicate 3":1.52,"call":"inactive"}
{"gene":"TEKT2 (GeneID 27285)","robust z-score, replicate 1":-1.2,"robust z-score, replicate 2":-0.996,"robust z-score, replicate 3":-0.0525,"call":"inactive"}
{"gene":"PNMA8A (GeneID 55228)","robust z-score, replicate 1":-0.538,"robust z-score, replicate 2":1.27,"robust z-score, replicate 3":-1.87,"call":"inactive"}
{"gene":"PARP10 (GeneID 84875)","robust z-score, replicate 1":-0.38,"robust z-score, replicate 2":-0.0103,"robust z-score, replicate 3":-0.0528,"call":"inactive"}
{"gene":"WDR82P1 (GeneID 728505)","robust z-score, replicate 1":0.157,"robust z-score, replicate 2":0.16,"robust z-score, replicate 3":0.364,"call":"inactive"}
{"gene":"TJP3 (GeneID 27134)","robust z-score, replicate 1":-0.803,"robust z-score, replicate 2":-1.01,"robust z-score, replicate 3":-0.621,"call":"inactive"}
{"gene":"GADD45GIP1 (GeneID 90480)","robust z-score, replicate 1":0.501,"robust z-score, replicate 2":1.01,"robust z-score, replicate 3":0.821,"call":"inactive"}
{"gene":"ZNF610 (GeneID 162963)","robust z-score, replicate 1":-0.95,"robust z-score, replicate 2":-0.926,"robust z-score, replicate 3":-0.847,"call":"inactive"}
{"gene":"NPIPB13 (GeneID 613037)","robust z-score, replicate 1":-0.098,"robust z-score, replicate 2":-0.0685,"robust z-score, replicate 3":-0.14,"call":"inactive"}
{"gene":"LY96 (GeneID 23643)","robust z-score, replicate 1":1.41,"robust z-score, replicate 2":1.6,"robust z-score, replicate 3":2.63,"call":"inactive"}
